For 18 molecules, binding results are on record in PMC8929021.

By UniProt entry, the sequences of proteins in these tests, tags left out.
UniProt P15927: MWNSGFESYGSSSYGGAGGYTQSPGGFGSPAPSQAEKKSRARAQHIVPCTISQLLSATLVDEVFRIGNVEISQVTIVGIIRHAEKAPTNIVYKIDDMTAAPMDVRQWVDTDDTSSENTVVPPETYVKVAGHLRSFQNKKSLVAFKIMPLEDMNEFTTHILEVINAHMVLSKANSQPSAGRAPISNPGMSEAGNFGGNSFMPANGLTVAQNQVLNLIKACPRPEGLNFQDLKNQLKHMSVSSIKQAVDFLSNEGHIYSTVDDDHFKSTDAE
UniProt Q13123: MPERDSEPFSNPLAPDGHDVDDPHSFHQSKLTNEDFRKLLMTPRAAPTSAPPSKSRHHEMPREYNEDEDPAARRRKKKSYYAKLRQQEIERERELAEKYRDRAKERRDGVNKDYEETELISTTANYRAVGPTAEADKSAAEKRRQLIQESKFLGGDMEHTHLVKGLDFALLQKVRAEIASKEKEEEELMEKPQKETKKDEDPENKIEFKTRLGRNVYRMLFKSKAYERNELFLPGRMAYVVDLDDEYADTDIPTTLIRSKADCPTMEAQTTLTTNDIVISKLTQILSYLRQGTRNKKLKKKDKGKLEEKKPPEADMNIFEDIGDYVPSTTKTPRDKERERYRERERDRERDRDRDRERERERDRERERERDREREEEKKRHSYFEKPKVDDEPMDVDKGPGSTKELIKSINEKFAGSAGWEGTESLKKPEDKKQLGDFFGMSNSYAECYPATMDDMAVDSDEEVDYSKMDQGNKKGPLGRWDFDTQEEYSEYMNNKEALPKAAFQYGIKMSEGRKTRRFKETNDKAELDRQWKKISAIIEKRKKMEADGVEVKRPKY
UniProt P12004: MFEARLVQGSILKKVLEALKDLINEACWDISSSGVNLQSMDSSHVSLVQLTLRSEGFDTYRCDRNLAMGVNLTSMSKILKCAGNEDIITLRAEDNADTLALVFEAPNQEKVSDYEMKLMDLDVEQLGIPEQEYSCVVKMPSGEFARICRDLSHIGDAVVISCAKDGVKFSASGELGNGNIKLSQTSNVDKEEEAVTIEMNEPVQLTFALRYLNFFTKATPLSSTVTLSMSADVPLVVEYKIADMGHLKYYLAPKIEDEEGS
UniProt P46100: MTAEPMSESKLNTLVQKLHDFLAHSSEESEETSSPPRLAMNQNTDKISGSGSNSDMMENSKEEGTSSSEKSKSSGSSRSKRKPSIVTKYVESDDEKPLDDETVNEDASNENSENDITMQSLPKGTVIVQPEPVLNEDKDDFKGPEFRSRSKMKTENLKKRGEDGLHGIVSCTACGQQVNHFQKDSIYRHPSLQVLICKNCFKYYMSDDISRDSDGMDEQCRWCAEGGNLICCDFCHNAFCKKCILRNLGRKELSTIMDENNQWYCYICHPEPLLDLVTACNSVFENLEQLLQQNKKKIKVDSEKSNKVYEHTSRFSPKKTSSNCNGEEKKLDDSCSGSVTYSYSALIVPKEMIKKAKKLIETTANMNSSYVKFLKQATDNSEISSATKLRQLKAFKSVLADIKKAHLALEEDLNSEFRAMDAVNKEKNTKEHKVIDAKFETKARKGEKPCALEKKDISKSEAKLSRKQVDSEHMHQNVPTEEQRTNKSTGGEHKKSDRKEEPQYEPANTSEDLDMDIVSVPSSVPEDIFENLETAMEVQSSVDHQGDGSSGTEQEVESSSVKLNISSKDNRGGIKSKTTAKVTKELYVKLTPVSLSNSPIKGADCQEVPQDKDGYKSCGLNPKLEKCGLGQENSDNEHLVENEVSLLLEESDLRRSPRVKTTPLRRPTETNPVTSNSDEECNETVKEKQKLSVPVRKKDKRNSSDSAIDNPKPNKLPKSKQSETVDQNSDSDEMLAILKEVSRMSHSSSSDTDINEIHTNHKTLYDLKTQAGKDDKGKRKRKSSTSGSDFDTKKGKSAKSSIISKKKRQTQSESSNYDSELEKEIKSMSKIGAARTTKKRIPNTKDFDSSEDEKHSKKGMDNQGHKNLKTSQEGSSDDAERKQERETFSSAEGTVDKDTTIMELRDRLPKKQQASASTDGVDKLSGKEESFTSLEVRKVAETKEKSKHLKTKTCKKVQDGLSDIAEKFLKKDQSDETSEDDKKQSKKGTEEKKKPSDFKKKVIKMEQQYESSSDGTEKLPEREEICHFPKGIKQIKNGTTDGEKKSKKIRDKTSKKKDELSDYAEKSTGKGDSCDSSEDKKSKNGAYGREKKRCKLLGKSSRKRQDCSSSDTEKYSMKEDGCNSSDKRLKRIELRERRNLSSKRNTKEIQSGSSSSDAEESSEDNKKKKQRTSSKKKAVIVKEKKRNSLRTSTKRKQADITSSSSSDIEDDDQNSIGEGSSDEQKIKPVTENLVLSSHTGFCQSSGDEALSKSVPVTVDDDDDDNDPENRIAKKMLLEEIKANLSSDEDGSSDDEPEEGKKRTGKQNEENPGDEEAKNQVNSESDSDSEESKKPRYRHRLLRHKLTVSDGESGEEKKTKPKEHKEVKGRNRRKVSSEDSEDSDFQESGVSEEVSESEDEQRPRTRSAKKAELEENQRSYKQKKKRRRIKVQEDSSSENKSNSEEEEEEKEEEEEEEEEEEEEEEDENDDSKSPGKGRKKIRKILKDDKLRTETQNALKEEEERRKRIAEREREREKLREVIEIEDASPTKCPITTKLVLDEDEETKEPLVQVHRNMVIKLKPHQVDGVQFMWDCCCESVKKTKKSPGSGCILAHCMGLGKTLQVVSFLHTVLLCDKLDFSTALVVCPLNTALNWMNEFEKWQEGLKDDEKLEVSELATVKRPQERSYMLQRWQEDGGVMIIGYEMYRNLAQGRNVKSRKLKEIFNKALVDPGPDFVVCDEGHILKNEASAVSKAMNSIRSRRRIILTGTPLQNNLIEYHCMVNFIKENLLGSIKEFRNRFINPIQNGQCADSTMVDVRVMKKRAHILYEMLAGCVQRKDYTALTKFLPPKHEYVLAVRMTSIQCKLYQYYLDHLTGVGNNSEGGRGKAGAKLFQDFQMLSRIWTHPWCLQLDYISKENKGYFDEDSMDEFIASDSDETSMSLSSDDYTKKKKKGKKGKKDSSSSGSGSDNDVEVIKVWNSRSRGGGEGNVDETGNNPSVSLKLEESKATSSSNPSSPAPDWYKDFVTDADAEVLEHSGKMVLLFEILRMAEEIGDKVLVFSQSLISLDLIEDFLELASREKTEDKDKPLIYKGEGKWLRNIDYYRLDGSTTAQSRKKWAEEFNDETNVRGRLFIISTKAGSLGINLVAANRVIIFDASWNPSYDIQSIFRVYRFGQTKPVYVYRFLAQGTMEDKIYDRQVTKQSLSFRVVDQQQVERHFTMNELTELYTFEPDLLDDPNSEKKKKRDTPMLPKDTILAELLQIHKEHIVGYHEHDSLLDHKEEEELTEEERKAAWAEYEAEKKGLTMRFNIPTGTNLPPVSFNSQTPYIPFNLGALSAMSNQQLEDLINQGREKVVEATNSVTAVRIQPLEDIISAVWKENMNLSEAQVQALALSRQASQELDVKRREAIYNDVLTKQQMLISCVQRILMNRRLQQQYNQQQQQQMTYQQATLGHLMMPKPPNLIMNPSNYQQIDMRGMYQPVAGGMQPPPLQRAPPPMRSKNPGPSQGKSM
UniProt P55081: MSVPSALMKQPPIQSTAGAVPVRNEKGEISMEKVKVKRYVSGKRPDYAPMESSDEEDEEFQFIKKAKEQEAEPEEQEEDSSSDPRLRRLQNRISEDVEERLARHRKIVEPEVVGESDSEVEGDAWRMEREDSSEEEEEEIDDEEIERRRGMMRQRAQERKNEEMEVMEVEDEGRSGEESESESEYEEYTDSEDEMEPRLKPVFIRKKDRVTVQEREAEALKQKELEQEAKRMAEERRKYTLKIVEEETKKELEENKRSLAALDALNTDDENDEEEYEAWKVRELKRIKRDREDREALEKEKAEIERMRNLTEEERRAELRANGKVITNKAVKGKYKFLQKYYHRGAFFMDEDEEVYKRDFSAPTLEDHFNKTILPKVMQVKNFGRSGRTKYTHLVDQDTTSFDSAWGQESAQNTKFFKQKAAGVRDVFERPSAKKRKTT
UniProt P09104: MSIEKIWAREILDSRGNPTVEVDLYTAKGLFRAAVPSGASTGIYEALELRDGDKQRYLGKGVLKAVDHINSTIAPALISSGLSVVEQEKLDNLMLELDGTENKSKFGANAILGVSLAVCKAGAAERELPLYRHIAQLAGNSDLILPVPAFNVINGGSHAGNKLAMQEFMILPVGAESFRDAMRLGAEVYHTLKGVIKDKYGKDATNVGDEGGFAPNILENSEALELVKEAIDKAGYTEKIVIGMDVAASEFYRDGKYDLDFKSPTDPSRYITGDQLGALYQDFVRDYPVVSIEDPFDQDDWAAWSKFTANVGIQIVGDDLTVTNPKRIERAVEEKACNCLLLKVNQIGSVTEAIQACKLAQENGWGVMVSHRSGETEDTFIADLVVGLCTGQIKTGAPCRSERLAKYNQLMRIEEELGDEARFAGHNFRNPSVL
UniProt Q8WTT2: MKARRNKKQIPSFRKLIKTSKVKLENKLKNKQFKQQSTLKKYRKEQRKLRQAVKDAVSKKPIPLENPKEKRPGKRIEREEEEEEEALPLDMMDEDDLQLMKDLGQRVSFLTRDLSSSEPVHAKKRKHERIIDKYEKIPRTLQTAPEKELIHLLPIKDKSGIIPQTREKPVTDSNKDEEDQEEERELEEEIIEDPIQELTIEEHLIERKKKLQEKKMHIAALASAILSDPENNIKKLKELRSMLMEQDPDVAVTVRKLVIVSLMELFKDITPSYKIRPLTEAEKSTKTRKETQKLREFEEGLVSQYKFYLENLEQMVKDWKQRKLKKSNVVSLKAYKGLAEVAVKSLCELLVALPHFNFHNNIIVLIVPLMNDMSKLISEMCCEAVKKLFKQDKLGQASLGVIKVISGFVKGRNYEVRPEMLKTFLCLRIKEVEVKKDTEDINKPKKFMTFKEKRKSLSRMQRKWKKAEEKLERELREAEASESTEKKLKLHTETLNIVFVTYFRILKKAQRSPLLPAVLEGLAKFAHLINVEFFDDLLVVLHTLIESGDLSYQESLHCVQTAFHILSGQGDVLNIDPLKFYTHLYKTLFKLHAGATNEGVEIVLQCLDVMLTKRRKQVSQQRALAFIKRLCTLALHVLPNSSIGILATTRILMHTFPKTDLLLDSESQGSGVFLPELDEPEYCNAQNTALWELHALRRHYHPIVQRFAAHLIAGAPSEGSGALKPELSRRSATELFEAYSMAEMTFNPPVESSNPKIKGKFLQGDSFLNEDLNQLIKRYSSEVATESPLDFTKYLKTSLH
UniProt P27694: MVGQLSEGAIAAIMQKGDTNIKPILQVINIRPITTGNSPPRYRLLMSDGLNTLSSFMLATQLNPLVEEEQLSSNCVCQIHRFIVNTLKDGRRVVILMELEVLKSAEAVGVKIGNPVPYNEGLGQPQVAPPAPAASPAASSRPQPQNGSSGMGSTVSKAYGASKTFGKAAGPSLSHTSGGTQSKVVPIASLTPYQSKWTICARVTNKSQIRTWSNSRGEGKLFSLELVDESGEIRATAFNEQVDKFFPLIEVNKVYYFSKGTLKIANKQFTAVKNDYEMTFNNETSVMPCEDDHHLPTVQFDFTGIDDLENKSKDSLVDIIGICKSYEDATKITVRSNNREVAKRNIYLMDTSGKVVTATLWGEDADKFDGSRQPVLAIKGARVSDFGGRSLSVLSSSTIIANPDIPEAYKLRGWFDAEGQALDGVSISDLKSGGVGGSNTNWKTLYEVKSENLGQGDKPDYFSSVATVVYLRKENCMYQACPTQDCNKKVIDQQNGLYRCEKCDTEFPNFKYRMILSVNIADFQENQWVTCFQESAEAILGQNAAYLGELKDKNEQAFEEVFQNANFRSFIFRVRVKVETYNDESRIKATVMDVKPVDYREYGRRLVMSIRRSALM

These are yes or no findings as the source states them, for the method shown. In cells and extracts the contact can be indirect. Here binding means that the protein was enriched with, or labelled near, the bait; the list need not be complete. A no says only that the protein was not detected with the bait. Tags and fused reporters may be left off the sequences shown.

The labels stand for the following.
B1: BUD13 (protein, UniProt Q9BRD0 1-619)
chain: MAAAPPLSKAEYLKRYLSGADAGVDRGSESGRKRRKKRPKPGGAGGKGMRIVDDDVSWTAISTTKLEKEEEEDDGDLPVVAEFVDERPEEVKQMEAFRSSAKWKLLGGHNEDLPSNRHFRHDTPDSSPRRVRHGTPDPSPRKDRHDTPDPSPRRARHDTPDPSPLRGARHDSDTSPPRRIRHDSSDTSPPRRARHDSPDPSPPRRPQHNSSGASPRRVRHDSPDPSPPRRARHGSSDISSPRRVHNNSPDTSRRTLGSSDTQQLRRARHDSPDLAPNVTYSLPRTKSGKAPERASSKTSPHWKESGASHLSFPKNSKYEYDPDISPPRKKQAKSHFGDKKQLDSKGDCQKATDSDLSSPRHKQSPGHQDSDSDLSPPRNRPRHRSSDSDLSPPRRRQRTKSSDSDLSPPRRSQPPGKKAAHMYSGAKTGLVLTDIQREQQELKEQDQETMAFEAEFQYAETVFRDKSGRKRNLKLERLEQRRKAEKDSERDELYAQWGKGLAQSRQQQQNVEDAMKEMQKPLARYIDDEDLDRMLREQEREGDPMANFIKKNKAKENKNKKVRPRYSGPAPPPNRFNIWPGYRWDGVDRSNGFEQKRFARLASKKAVEELAYKWSVEDM
B2: methyltransferase METTL22 (enzyme, UniProt Q9BUU2 1-404)
chain: MVQLAPAAAMDEVTFRSDTVLSDVHLYTPNHRHLMVRLNSVGQPVFLSQFKLLWSQDSWTDSGAKGGSHRDVHTKEPPSAETGSTGSPPGSGHGNEGFSLQAGTDTTGQEVAEAQLDEDGDLDVVRRPRAASDSNPAGPLRDKVHPMILAQEEDDVLGEEAQGSPHDIIRIEHTMATPLEDVGKQVWRGALLLADYILFRQDLFRGCTALELGAGTGLASIIAATMARTVYCTDVGADLLSMCQRNIALNSHLAATGGGIVRVKELDWLKDDLCTDPKVPFSWSQEEISDLYDHTTILFAAEVFYDDDLTDAVFKTLSRLAHRLKNACTAILSVEKRLNFTLRHLDVTCEAYDHFRSCLHALEQLADGKLRFVVEPVEASFPQLLVYERLQQLELWKIIAEPVT
B3: SNIP1/Pml1 (protein, UniProt Q8TAD8 1-396)
chain: MKAVKSERERGSRRRHRDGDVVLPAGVVVKQERLSPEVAPPAHRRPDHSGGSPSPPTSEPARSGHRGNRARGVSRSPPKKKNKASGRRSKSPRSKRNRSPHHSTVKVKQEREDHPRRGREDRQHREPSEQEHRRARNSDRDRHRGHSHQRRTSNERPGSGQGQGRDRDTQNLQAQEEEREFYNARRREHRQRNDVGGGGSESQELVPRPGGNNKEKEVPAKEKPSFELSGALLEDTNTFRGVVIKYSEPPEARIPKKRWRLYPFKNDEVLPVMYIHRQSAYLLGRHRRIADIPIDHPSCSKQHAVFQYRLVEYTRADGTVGRRVKPYIIDLGSGNGTFLNNKRIEPQRYYELKEKDVLKFGFSSREYVLLHESSDTSEIDRKDDEDEEEEEEVSDS
B4: PRPF38A (protein, UniProt Q8NAV1 1-312)
chain: MANRTVKDAHSIHGTNPQYLVEKIIRTRIYESKYWKEECFGLTAELVVDKAMELRFVGGVYGGNIKPTPFLCLTLKMLQIQPEKDIIVEFIKNEDFKYVRMLGALYMRLTGTAIDCYKYLEPLYNDYRKIKSQNRNGEFELMHVDEFIDELLHSERVCDIILPRLQKRYVLEEAEQLEPRVSALEEDMDDVESSEEEEEEDEKLERVPSPDHRRRSYRDLDKPRRSPTLRYRRSRSRSPRRRSRSPKRRSPSPRRERHRSKSPRRHRSRSRDRRHRSRSKSPGHHRSHRHRSHSKSPERSKKSHKKSRRGNE
B5: THRAP3 (protein, UniProt Q9Y2W1 1-955)
chain: MSKTNKSKSGSRSSRSRSASRSRSRSFSKSRSRSRSLSRSRKRRLSSRSRSRSYSPAHNRERNHPRVYQNRDFRGHNRGYRRPYYFRGRNRGFYPWGQYNRGGYGNYRSNWQNYRQAYSPRRGRSRSRSPKRRSPSPRSRSHSRNSDKSSSDRSRRSSSSRSSSNHSRVESSKRKSAKEKKSSSKDSRPSQAAGDNQGDEAKEQTFSGGTSQDTKASESSKPWPDATYGTGSASRASAVSELSPRERSPALKSPLQSVVVRRRSPRPSPVPKPSPPLSSTSQMGSTLPSGAGYQSGTHQGQFDHGSGSLSPSKKSPVGKSPPSTGSTYGSSQKEESAASGGAAYTKRYLEEQKTENGKDKEQKQTNTDKEKIKEKGSFSDTGLGDGKMKSDSFAPKTDSEKPFRGSQSPKRYKLRDDFEKKMADFHKEEMDDQDKDKAKGRKESEFDDEPKFMSKVIGANKNQEEEKSGKWEGLVYAPPGKEKQRKTEELEEESFPERSKKEDRGKRSEGGHRGFVPEKNFRVTAYKAVQEKSSSPPPRKTSESRDKLGAKGDFPTGKSSFSITREAQVNVRMDSFDEDLARPSGLLAQERKLCRDLVHSNKKEQEFRSIFQHIQSAQSQRSPSELFAQHIVTIVHHVKEHHFGSSGMTLHERFTKYLKRGTEQEAAKNKKSPEIHRRIDISPSTFRKHGLAHDEMKSPREPGYKAEGKYKDDPVDLRLDIERRKKHKERDLKRGKSRESVDSRDSSHSRERSAEKTEKTHKGSKKQKKHRRARDRSRSSSSSSQSSHSYKAEEYTEETEEREESTTGFDKSRLGTKDFVGPSERGGGRARGTFQFRARGRGWGRGNYSGNNNNNSNNDFQKRNREEEWDPEYTPKSKKYYLHDDREGEGSDKWVSRGRGRGAFPRGRGRFMFRKSSTSPKWAHDKFSGEEGEIEDDESGTENREEKDNIQPTTE
B6: RBMX2/Snu17 (protein, UniProt Q9Y388 1-322)
chain: MNPLTKVKLINELNEREVQLGVADKVSWHSEYKDSAWIFLGGLPYELTEGDIICVFSQYGEIVNINLVRDKKTGKSKGFCFLCYEDQRSTILAVDNFNGIKIKGRTIRVDHVSNYRAPKDSEEIDDVTRQLQEKGCGARTPSPSLSESSEDEKPTKKHKKDKKEKKKKKKEKEKADREVQAEQPSSSSPRRKTVKEKDDTGPKKHSSKNSERAQKSEPREGQKLPKSRTAYSGGAEDLERELKKEKPKHEHKSSSRREAREEKTRIRDRGRSSDAHSSWYNGRSEGRSYRSRSRSRDKSHRHKRARRSRERESSNPSDRWRH
B7: CEBZ (protein, UniProt Q03701 1-1054)
chain: MAAVKEPLEFHAKRPWRPEEAVEDPDEEDEDNTSEAENGFSLEEVLRLGGTKQDYLMLATLDENEEVIDGGKKGAIDDLQQGELEAFIQNLNLAKYTKASLVEEDEPAEKENSSKKEVKIPKINNKNTAESQRTSVNKVKNKNRPEPHSDENGSTTPKVKKDKQNIFEFFERQTLLLRPGGKWYDLEYSNEYSLKPQPQDVVSKYKTLAQKLYQHEINLFKSKTNSQKGASSTWMKAIVSSGTLGDRMAAMILLIQDDAVHTLQFVETLVNLVKKKGSKQQCLMALDTFKELLITDLLPDNRKLRIFSQRPFDKLEQLSSGNKDSRDRRLILWYFEHQLKHLVAEFVQVLETLSHDTLVTTKTRALTVAHELLCNKPEEEKALLVQVVNKLGDPQNRIATKASHLLETLLCKHPNMKGVVSGEVERLLFRSNISSKAQYYAICFLNQMALSHEESELANKLITVYFCFFRTCVKKKDVESKMLSALLTGVNRAYPYSQTGDDKVREQIDTLFKVLHIVNFNTSVQALMLLFQVMNSQQTISDRYYTALYRKMLDPGLMTCSKQAMFLNLVYKSLKADIVLRRVKAFVKRLLQVTCQQMPPFICGALYLVSEILKAKPGLRSQLDDHPESDDEENFIDANDDEDMEKFTDADKETEIVKKLETEETVPETDVETKKPEVASWVHFDNLKGGKQLNKYDPFSRNPLFCGAENTSLWELKKLSVHFHPSVALFAKTILQGNYIQYSGDPLQDFTLMRFLDRFVYRNPKPHKGKENTDSVVMQPKRKHFIKDIRHLPVNSKEFLAKEESQIPVDEVFFHRYYKKVAVKEKQKRDADEESIEDVDDEEFEELIDTFEDDNCFSSGKDDMDFAGNVKKRTKGAKDNTLDEDSEGSDDELGNLDDDEVSLGSMDDEEFAEVDEDGGTFMDVLDDESESVPELEVHSKVSTKKSKRKGTDDFDFAGSFQGPRKKKRNLNDSSLFVSAEEFGHLLDENMGSKFDNIGMNAMANKDNASLKQLRWEAERDDWLHNRDAKSIIKKKKHFKKKRIKTTQKTKKQRK

In the test the target is T1, KIN (Kin17) fused to BirA* (human) (UniProt O60870).
T1 sequence: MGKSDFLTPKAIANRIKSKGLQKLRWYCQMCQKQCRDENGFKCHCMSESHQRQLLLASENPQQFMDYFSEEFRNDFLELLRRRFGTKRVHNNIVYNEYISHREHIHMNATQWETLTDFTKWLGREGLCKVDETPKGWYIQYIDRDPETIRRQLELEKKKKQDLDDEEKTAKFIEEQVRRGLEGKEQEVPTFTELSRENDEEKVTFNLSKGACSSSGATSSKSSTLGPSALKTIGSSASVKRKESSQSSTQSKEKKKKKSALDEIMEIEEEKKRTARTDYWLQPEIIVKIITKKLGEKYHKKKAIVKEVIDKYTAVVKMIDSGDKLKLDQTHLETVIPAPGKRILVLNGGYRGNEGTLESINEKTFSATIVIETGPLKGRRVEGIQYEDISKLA
Nature of the test: proximity labelling; BioID-MS: BirA* fusion bait in stable Flp-In T-Rex 293 or HeLa cells, tetracycline 1 μg/mL and biotin 75 μM for 24 h; lysis in modified RIPA buffer, streptavidin-agarose beads 4 °C 3 h, on-bead trypsin digestion, LC-MS/MS; GFP-NLS as control, SAINTexpress FDR threshold 0.1; for KIN also in HeLa cells synchronised by double thymidine block (S, G2/M, G1) and 2 or 24 h after 10 Gy gamma irradiation.
Turning to RPA2 (from UniProt P15927 1-270), the binding result was “no binding”.
For IK (from UniProt Q13123 1-557) the value was “binds”; for PCNA (from UniProt P12004 1-261), “no binding”; for “topoisomerase TOP2B (from UniProt Q02880 1-1626)”, “binds”.
With “DNA polymerase α (human (endogenous in Flp-In T-Rex HeLa))” the entry was “no binding”; with PRPF4B, “binds”.
With ATRX (from UniProt P46100 1-2492) the entry was “binds”; with MFAP1 (from UniProt P55081 1-439), “binds”.
For “enolase ENO2 (from UniProt P09104 1-434)”, the binding entry is given as “binds”.
For NOC3L (from UniProt Q8WTT2 1-800) the value was “binds”; for RPA1 (from UniProt P27694 1-616), “no binding”; for B1, “binds”.
As for B2, the binding entry is “binds”.
Regarding B3, the binding result is “no binding”.
Regarding B4, the binding result is on record as “binds”.
As for B5, the binding entry is reported as “binds”.
For B6 the value was “binds”.
On to B7, for which the binding result is “binds”.
